Test results reported in the supplement of paper PMC6078165.

System: MDAMB231
Assay: relative JC-1 red fluorescence (viability) vs pre-drug, coculture with fibroblast (fraction); higher = more viable cancer cells
Settings: 0.1 µM
Procedure: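 JC-1 labelled TNBC cells cocultured 1:1 (1,500 cells each) with CellTrace Violet stained primary or stromal fibroblasts in 384-well plates in FluoroBrite medium, treated with one of 42 anticancer drugs at 0.1, 1, 10 or 100 uM. JC-1 red fluorescence (mitochondrial integrity in cancer cells only) was read by plate reader every 8 h for 72 h. Values are normalised to each well's pre-drug value. The stock of one drug was tenfold lower, so its dose labels may be too high.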

CCC1=C[C@@H]2CN(C1)Cc1c([nH]c3ccccc13)[C@@](C(=O)OC)(c1cc3c(cc1OC)N(C)[C@H]1[C@@](O)(C(=O)OC)[C@H](OC(C)=O)[C@]4(CC)C=CCN5CC[C@]31[C@@H]54)C2 [Vinorelbine]
relative JC-1 red fluorescence
Settings	8 h	16 h	24 h	32 h	40 h	48 h	56 h	64 h	72 h
coculture fibroblast: C12385	0.828	0.737	0.712	0.631	0.565	0.54	0.512	0.535	0.537
coculture fibroblast: H6013	0.893	0.78	0.767	0.762	0.7176	0.708	0.687	0.684	0.662
coculture fibroblast: H6019	0.779	0.714	0.7102	0.664	0.634	0.62177	0.602	0.617	0.598
coculture fibroblast: H6076	0.91656	0.8	0.736	0.702	0.657	0.614	0.581	0.568	0.563
coculture fibroblast: H6231	0.941	0.8467	0.712	0.6616	0.5975	0.5677	0.508	0.484	0.453
coculture fibroblast: HADF	0.9014	0.818	0.741	0.687	0.628	0.582	0.547	0.529	0.4852
coculture fibroblast: HCFa	0.8935	0.795	0.744	0.685	0.61	0.552	0.5124	0.47699	0.426
coculture fibroblast: HCPF	0.9343	0.8249	0.713	0.6844	0.6233	0.578	0.523	0.496	0.482
coculture fibroblast: HHSteC	0.932	0.878	0.85	0.812	0.778	0.744	0.692	0.67	0.624
coculture fibroblast: HMF	0.912	0.802	0.715	0.673	0.616	0.569	0.524	0.507	0.494
coculture fibroblast: HPFa	0.9372	0.85	0.782	0.716	0.674	0.633	0.576	0.545	0.513
coculture fibroblast: HUF	0.917	0.797	0.812	0.687	0.617	0.602	0.554	0.559	0.536
coculture fibroblast: Hs5	0.8712	0.7957	0.75	0.699	0.6663	0.6173	0.5911	0.5702	0.555
coculture fibroblast: Hs27A	0.9135	0.8573	0.7941	0.725	0.6739	0.6104	0.5973	0.5647	0.53465
coculture fibroblast: Hs343T	0.91	0.788	0.689	0.652	0.594	0.546	0.492	0.464	0.448
coculture fibroblast: WS1	0.796	0.711	0.648	0.595	0.553	0.523	0.484	0.493	0.49

The reference is the same well before dosing, and untreated signal decays as well.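 Labels refer to human fibroblasts, largely primary: uterine (C12385, HUF), lung (H6013), bone (Hs27A), adrenal (HADF), skin (WS1), plus mammary HMF and breast cancer-associated Hs343T. Cancer lines are basal-like or mesenchymal-like triple-negative breast cancer. The paper counts as hits responses shifting over 3x the replicate standard deviation. The tissue of the other fibroblasts is not given here.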
